Data reported in ChEMBL document CHEMBL1132491, “Benzimidazole derivatives. 2. Synthesis and structure-activity relationships of new azabicyclic benzimidazole-4-carboxylic acid derivatives with affinity for serotoninergic 5-HT(3) receptors” (J Med Chem, 1999).

Species on record: Cavia porcellus
Assay: Single-point analysis using 5(10e-9) M concentration of the antagonist (pA2= -log([B]/concentration ratio-1); [B] =concentration of the antagonist).
Format: functional
Settings: read-out: pA2 (converted)
How it was run: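 Ileal strip preparation with methysergide 10^-6 M present. Paired noncumulative 5-HT curves are run, with the antagonist at 5×10^-9 M added 30 min before the second curve. The concentration ratio is taken at the 5-HT level giving 50% of the control maximum in the ≥10^-6 M phase. Single-point pA2 = −log([B]/(CR−1)) (Furchgott).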

CN1C2CCCC1CC(NC(=O)c1nn(C)c3ccccc13)C2 (stereo unspecified) [GRANISETRON]
Kb: 0.631 nM
